Results published in the supplement of paper PMC4604168 (melanoma cell lines).
The list shows a part of the results. Many values rest on one well or one pass, so single values are uncertain.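 Imaging used 1,536-well plates; nuclei positive for cleaved PARP by antibody were divided by total DNA-stained nuclei to yield the apoptosis fraction. Doses for screening kept most cells viable, and cell lines differ markedly in resting and induced cleaved-PARP levels.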

Legend:
Assay in all cases: cleaved PARP positive nuclei fraction relative to DMSO control; melanoma cells; higher = more apoptosis
Details in all cases: library dose: low library concentration; 72 h
501Mel = test system: 501Mel
A101D = test system: A101D
A2058 = test system: A2058
A375 = test system: A375
C32 = test system: C32
CBRC008 = test system: CBRC008 (line from a melanoma biopsy)
CBRC014 = test system: CBRC014 (line from a melanoma biopsy)
CBRC016 = test system: CBRC016 (line from a melanoma biopsy)
CBRC017 = test system: CBRC017 (line from a melanoma biopsy)

SMILES	cleaved PARP positive nuclei fraction (501Mel) [%]	cleaved PARP positive nuclei fraction (A101D) [%]	cleaved PARP positive nuclei fraction (A2058) [%]	cleaved PARP positive nuclei fraction (A375) [%]	cleaved PARP positive nuclei fraction (C32) [%]	cleaved PARP positive nuclei fraction (CBRC008) [%]	cleaved PARP positive nuclei fraction (CBRC014) [%]	cleaved PARP positive nuclei fraction (CBRC016) [%]	cleaved PARP positive nuclei fraction (CBRC017) [%]
NC(=O)c1ccc(N(C(N)=O)c2c(F)cccc2F)nc1-c1ccc(F)cc1F + C#Cc1cccc(Nc2ncnc3cc(OCCOC)c(OCCOC)cc23)c1 [erlotinib] (first compound 0.4 µM, partner dose 0.8 µM)	126	142	148	210	76	155	97.2	83	538
Cn1cnc2c(F)c(Nc3ccc(Br)cc3Cl)c(C(=O)NOCCO)cc21 [selumetinib] + Cn1nnc2c(C(N)=O)ncn2c1=O [temozolomide] (first compound 0.015 µM, partner dose 2 µM)	645	99	81.2	198	84.4	118	85.1	156	107
NC1(c2ccc(-c3nc4ccn5c(=O)[nH]nc5c4cc3-c3ccccc3)cc2)CCC1 + COCC[n+]1c2c(n(Cc3cnccn3)c1C)C(=O)c1ccccc1C2=O [YM155] (first compound 0.4 µM, partner dose 0.0004 µM)	82.4	57.2	150	456	87.7	730	78.3	173	103
CCN(CC)CCNC(=O)c1c(C)[nH]c(/C=C2\C(=O)Nc3ccc(F)cc32)c1C [sunitinib] + Nc1ncn([C@H]2C[C@H](O)[C@@H](CO)O2)c(=O)n1 [decitabine] (first compound 0.4 µM, partner dose 0.1 µM)	109	121	292	261	93.7	180	117	109	237
Cn1sc(=O)n(Cc2ccccc2)c1=O + C#Cc1cccc(Nc2ncnc3cc(OCCOC)c(OCCOC)cc23)c1 [erlotinib] (first compound 0.4 µM, partner dose 0.8 µM)	64.6	89.4	57.8	344	186	88.9	86.9	65.8	72.9
CN(c1ncccc1CNc1nc(Nc2ccc3c(c2)CC(=O)N3)ncc1C(F)(F)F)S(C)(=O)=O + Clc1ccc(Nc2nnc(Cc3ccncc3)c3ccccc23)cc1 [vatalanib] (first compound 0.08 µM, partner dose 2 µM)	121	119	210	136	102	36.3	120	161	91
NC(=O)c1ccc(N(C(N)=O)c2c(F)cccc2F)nc1-c1ccc(F)cc1F + CCN(CC)CCNC(=O)c1c(C)[nH]c(/C=C2\C(=O)Nc3ccc(F)cc32)c1C [sunitinib] (first compound 0.4 µM, partner dose 0.4 µM)	142	87.8	150	112	79.5	49.4	82.8	113	114
CCCCCCCCc1ccc(CCC(N)(CO)CO)cc1 [fingolimod] + C#Cc1cccc(Nc2ncnc3cc(OCCOC)c(OCCOC)cc23)c1 [erlotinib] (first compound 2 µM, partner dose 0.8 µM)	91.1	1000	92.6	666	72	61.8	102	89.1	113
COc1ccc(C2=N[C@@H](c3ccc(Cl)cc3)[C@@H](c3ccc(Cl)cc3)N2C(=O)N2CCNC(=O)C2)c(OC(C)C)c1 [Nutlin-3] + C[C@]1(c2nc3c(C(N)=O)cccc3[nH]2)CCCN1 [Veliparib] (first compound 0.1 µM, partner dose 1.4 µM)	298	153	103	374	85.5	241	118	174	104
CCCCCCCCc1ccc(CCC(N)(CO)CO)cc1 [fingolimod] + Cc1nc(Nc2ncc(C(=O)Nc3c(C)cccc3Cl)s2)cc(N2CCN(CCO)CC2)n1 [dasatanib] (first compound 2 µM, partner dose 0.004 µM)	76.1	156	87.8	204	252	97.5	285	32.4	109
C[C@]1(O)C[C@@H](c2nc(-c3ccc4ccc(-c5ccccc5)nc4c3)c3c(N)nccn32)C1 + O=C(O)c1ccc2c(c1)nc(Nc1cccc(Cl)c1)c1ccncc12 [CX4945] (first compound 0.4 µM, partner dose 0.4 µM)	96.3	131	150	982	71.1	136	157	34.4	161
CS(=O)(=O)c1ccc(C(=O)Nc2ccc(Cl)c(-c3ccccn3)c2)c(Cl)c1 [vismodegib] + C#Cc1cccc(Nc2ncnc3cc(OCCOC)c(OCCOC)cc23)c1 [erlotinib] (first compound 1 µM, partner dose 0.8 µM)	93.1	108	151	69.1	81.5	103	101	77	89
COc1ccc(C2=N[C@@H](c3ccc(Cl)cc3)[C@@H](c3ccc(Cl)cc3)N2C(=O)N2CCNC(=O)C2)c(OC(C)C)c1 [Nutlin-3] + CCCCCCCCc1ccc(CCC(N)(CO)CO)cc1 [fingolimod] (first compound 0.1 µM, partner dose 2 µM)	93	33.7	52.1	996	90	28.2	177	54.7	93.5
CCCCCCCCc1ccc(CCC(N)(CO)CO)cc1 [fingolimod] + C=C(c1ccc(C(=O)O)cc1)c1cc2c(cc1C)C(C)(C)CCC2(C)C [Bexarotene] (first compound 2 µM, partner dose 2 µM)	201	91.3	78	80.7	74.2	132	95.1	64.4	226
CCCCCCCCc1ccc(CCC(N)(CO)CO)cc1 [fingolimod] + Cn1nnc2c(C(N)=O)ncn2c1=O [temozolomide] (first compound 2 µM, partner dose 2 µM)	121	51	107	380	45.6	66	111	32.1	102
C[C@@H](N)c1ccc(C(=O)Nc2ccnc3[nH]ccc23)cc1 + Nc1ccn([C@@H]2O[C@H](CO)[C@@H](O)C2(F)F)c(=O)n1 [gemcitabine] (first compound 0.4 µM, partner dose 0.0004 µM)	56.3	96.5	87.4	125	107	71.3	154	158	110
C[C@]1(O)C[C@@H](c2nc(-c3ccc4ccc(-c5ccccc5)nc4c3)c3c(N)nccn32)C1 + CO[C@H]1C[C@@H]2CC[C@@H](C)[C@@](O)(O2)C(=O)C(=O)N2CCCC[C@H]2C(=O)O[C@H]([C@H](C)C[C@@H]2CC[C@@H](OCCO)[C@H](OC)C2)CC(=O)[C@H](C)/C=C(\C)[C@@H](O)[C@@H](OC)C(=O)[C@H](C)C[C@H](C)/C=C/C=C/C=C/1C [everolimus] (first compound 0.4 µM, partner dose 0.02 µM)	12900	60.9	196	913	151	172	118	90.9	185
CCCCCCCCc1ccc(CCC(N)(CO)CO)cc1 [fingolimod] + C=CCNC1=C2C[C@@H](C)C[C@H](OC)[C@H](O)[C@@H](C)/C=C(\C)[C@H](OC(N)=O)[C@@H](OC)/C=C\C=C(/C)C(=O)NC(=CC1=O)C2=O [Tanespimycin] (first compound 2 µM, partner dose 0.002 µM)	191	118	187	340	88.4	170	109	133	309
NC1(c2ccc(-c3nc4ccn5c(=O)[nH]nc5c4cc3-c3ccccc3)cc2)CCC1 + CN1CCN(c2ccc3nc(-c4c(N)c5c(F)cccc5[nH]c4=O)[nH]c3c2)CC1 [Dovitinib] (first compound 0.4 µM, partner dose 0.1 µM)	195	316	94.6	432	90.5	48.3	92.3	37.8	66.4
CS(=O)(=O)c1ccc(C(=O)Nc2ccc(Cl)c(-c3ccccn3)c2)c(Cl)c1 [vismodegib] + Cn1c(=O)n(-c2ccc(C(C)(C)C#N)cc2)c2c3cc(-c4cnc5ccccc5c4)ccc3ncc21 [NVP-BEZ235] (first compound 1 µM, partner dose 0.004 µM)	77.5	45.2	99.9	102	82.1	79.2	72.1	151	90
COc1ccc(C2=N[C@@H](c3ccc(Cl)cc3)[C@@H](c3ccc(Cl)cc3)N2C(=O)N2CCNC(=O)C2)c(OC(C)C)c1 [Nutlin-3] + O=C(O)[C@@H]1[O][Sb](=[O])([O][Sb]2(=[O])[O][C@H]([C@H](O)CO)[C@H](O)[C@H](C(=O)O)[O]2)[O][C@H]([C@H](O)CO)[C@@H]1O [stibogluconate] (first compound 0.1 µM, partner dose 2 µM)	95.1	121	114	120	79.9	115	86.6	23.5	109
C[C@]1(O)C[C@@H](c2nc(-c3ccc4ccc(-c5ccccc5)nc4c3)c3c(N)nccn32)C1 + CN(c1ncccc1CNc1nc(Nc2ccc3c(c2)CC(=O)N3)ncc1C(F)(F)F)S(C)(=O)=O [PF562271] (first compound 0.4 µM, partner dose 0.08 µM)	176	50	29	11.6	33.3	52.5	107	59.5	128

Some of the entries so far, bar-delimited.
SMILES | cleaved PARP positive nuclei fraction (501Mel) [%] | cleaved PARP positive nuclei fraction (A101D) [%] | cleaved PARP positive nuclei fraction (A2058) [%] | cleaved PARP positive nuclei fraction (A375) [%] | cleaved PARP positive nuclei fraction (C32) [%] | cleaved PARP positive nuclei fraction (CBRC008) [%] | cleaved PARP positive nuclei fraction (CBRC014) [%] | cleaved PARP positive nuclei fraction (CBRC016) [%] | cleaved PARP positive nuclei fraction (CBRC017) [%]
NC(=O)c1ccc(N(C(N)=O)c2c(F)cccc2F)nc1-c1ccc(F)cc1F + CCN(CC)CCNC(=O)c1c(C)[nH]c(/C=C2\C(=O)Nc3ccc(F)cc32)c1C [sunitinib] (first compound 0.4 µM, partner dose 0.4 µM) | 142 | 87.8 | 150 | 112 | 79.5 | 49.4 | 82.8 | 113 | 114
C[C@]1(O)C[C@@H](c2nc(-c3ccc4ccc(-c5ccccc5)nc4c3)c3c(N)nccn32)C1 + O=C(O)c1ccc2c(c1)nc(Nc1cccc(Cl)c1)c1ccncc12 [CX4945] (first compound 0.4 µM, partner dose 0.4 µM) | 96.3 | 131 | 150 | 982 | 71.1 | 136 | 157 | 34.4 | 161
